Source: patent US5461035A (priority 1990, dated 1995)

Assay: general procedure: solution-phase peptide synthesis; DCC/HOBt

H-NY(tBu)C(Trt)N-OtBu
step yield (late stage modification step): 65%

PEPTIDE1{[ac].L.E.N.Y.C.N}$$$$V2.0
step yield (late stage modification step): 87%

Ddz-Tyr(Bu^t)-Gln-Leu-Glu(OBu^t)-Asn-Tyr(Bu^t)-Cys(Trt)-Asn-OBu^t
step yield (coupling step): 76.8%

Fmoc-NY(tBu)C(Trt)N-OtBu
step yield (coupling step): 63%

H-Asn-Tyr-Cys-Asn-OH (SEQ ID No. 3)
step yield (late stage modification step): 89%

Ac-LE(OtBu)NY(tBu)C(Trt)N-OtBu
step yield (late stage modification step): >100%

Some peptides are written in HELM: one residue between dots, names in brackets for other building blocks, links after the first $. *: point of attachment. Trt = c1ccc(C(c2ccccc2)(c2ccccc2)*)cc1; Fmoc = O=C(OCC1c2ccccc2-c2ccccc21)*; OtBu = CC(C)(C)O*; tBu = CC(C)(C)*
